The results in this text go back to publication PMC3477315.

These are yes or no findings as the source states them, for the method shown. Binding seen in cells or lysates may run through a third protein. Some results given as binding are weak or reduced against the parent protein; the word gives no strength.

The test has as its target T1, 35S-labeled IVT wild-type procaspase-8, Q14790.
T1 chain: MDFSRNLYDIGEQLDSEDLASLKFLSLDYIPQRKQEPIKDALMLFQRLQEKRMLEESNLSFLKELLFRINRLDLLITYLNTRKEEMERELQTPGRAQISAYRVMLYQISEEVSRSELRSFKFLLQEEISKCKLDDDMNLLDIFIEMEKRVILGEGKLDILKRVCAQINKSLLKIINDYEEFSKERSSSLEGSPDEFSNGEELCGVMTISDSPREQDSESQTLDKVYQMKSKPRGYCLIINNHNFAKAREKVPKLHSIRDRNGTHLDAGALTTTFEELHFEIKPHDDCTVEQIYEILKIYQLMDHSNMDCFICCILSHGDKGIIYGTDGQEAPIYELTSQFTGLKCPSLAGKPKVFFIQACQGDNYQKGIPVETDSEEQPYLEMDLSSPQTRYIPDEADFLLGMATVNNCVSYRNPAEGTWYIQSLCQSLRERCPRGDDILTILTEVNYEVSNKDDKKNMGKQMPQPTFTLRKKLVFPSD
Nature of the test: pull-down; in vitro DISC reconstitution as above; procaspase-8 with itself (DED chain), inferred from the amount of IVT 35S-procaspase-8 recruited to the bead-bound complex. The following applies: remark: other sources report otherwise.

B1: 35S-labeled IVT wild-type procaspase-8, Q14790 1-479 (enzyme)
chain: T1 chain
modifications: here or on the partner: 35S-labeled; 35S-labeled
Take B1: the binding result was “binds”.
